Among the test systems are OR52B2 clone 1210; OR52B4 clone 1508; OR52D1 clone 1164; OR52E1 clone 1113; OR52E5 P234L clone 1124; OR52E6 clone 1196; OR52E8 clone 1154; OR52H1 clone 1702; OR52I1 clone 1521; OR52I2 T132M clone 1324; OR52K1 clone 1163; OR52K2 clone 1211; OR52L2 R169W clone 1117; OR52M1 clone 1143; OR52N1 clone 1191; OR52N2 M228T clone 1569.
What all share (assay): odorant receptor activation (CRE luciferase / Renilla) (fold of no-odor wells); higher = more activation
What all share (conditions): 100 µM

The subject of assay [1] is OR52B6 T36A/L90H/A146T/H149R/V267I clone 1306.
Assay [2] concerns OR52E2 H174R/R264C clone 1184.
Assay [3] deals with OR52E4 V176I/R184M/R228H clone 1123.
Assay [4] has as its system OR52L1 D73N/C125R/C146R/K168T/W282R clone 1116.

This is one part of the list. Single wells; the ratio to wells without odorant was worked out here, and repeats agree poorly.

Consider `C=CCc1ccc(OC(C)=O)c(OC)c1` [eugenol acetate], for which the odorant receptor activation with OR52B2 clone 1210 amounted to 1.66; with OR52B4 clone 1508, 1.66; in assay [1] it was 1.32; with OR52D1 clone 1164, 1.6; in the assay on OR52E1 clone 1113, 1.51; in [2] it was 1.74. Besides, the odorant receptor activation in [3] was 0.898; in the assay on OR52E5 P234L clone 1124, 1.23; in the assay on OR52E6 clone 1196, 1.94; in the assay with OR52E8 clone 1154, 1.73; with OR52H1 clone 1702 it was 2.03; in the assay on OR52I1 clone 1521, 1.66. The odorant receptor activation in the assay on OR52I2 T132M clone 1324 amounted to 1.73; with OR52K1 clone 1163 it was 1.54; in the assay on OR52K2 clone 1211, 1.5; in [4], 2.1; in the assay with OR52L2 R169W clone 1117 it was 2.15; in the assay on OR52M1 clone 1143, 2.28. Also, the results for the odorant receptor activation with OR52N1 clone 1191 and in the assay on OR52N2 M228T clone 1569 were 1.73 and 2.1, respectively.

With `CC(C)CCC(=O)O` [4-methylvaleric acid], the odorant receptor activation stood at 0.916 with OR52B2 clone 1210; 0.884 with OR52B4 clone 1508; 0.97 in assay [1]; 1.08 with OR52D1 clone 1164; 4.04 with OR52E1 clone 1113; 0.733 in assay [2]. Also, the odorant receptor activation in assay [3] was 0.878; with OR52E5 P234L clone 1124 it was 0.806; in the assay with OR52E6 clone 1196 it was 0.978; in the assay on OR52E8 clone 1154 it was 0.82; in the assay on OR52H1 clone 1702 it was 0.743; in the assay with OR52I1 clone 1521, 1.04. For the same compound, the odorant receptor activation was determined as 1.17 with OR52I2 T132M clone 1324; 1.24 in the assay on OR52K1 clone 1163; 0.845 in the assay with OR52K2 clone 1211; 15.1 in assay [4]; 10.4 with OR52L2 R169W clone 1117; 0.992 in the assay on OR52M1 clone 1143. For the same compound, the odorant receptor activation is 1.27 in the assay with OR52N1 clone 1191 and 0.953 with OR52N2 M228T clone 1569.

In the case of `COC(=O)c1ccccc1O` [methyl salicylate], the odorant receptor activation in the assay with OR52B2 clone 1210 stood at 0.748; with OR52B4 clone 1508, 0.837; in assay [1], 0.166; in the assay with OR52D1 clone 1164, 0.829; in the assay on OR52E1 clone 1113, 0.951; in [2], 1.08. For the same compound, the odorant receptor activation in [3] is 1.08; in the assay with OR52E5 P234L clone 1124, 0.887; in the assay with OR52E6 clone 1196, 0.832; in the assay on OR52E8 clone 1154 it was 0.905; in the assay on OR52H1 clone 1702, 1.2; in the assay on OR52I1 clone 1521 it was 0.933. In addition, the odorant receptor activation in the assay on OR52I2 T132M clone 1324 stood at 0.964; in the assay on OR52K1 clone 1163, 0.808; with OR52K2 clone 1211, 0.888; in [4], 1.1; in the assay with OR52L2 R169W clone 1117, 1.1; with OR52M1 clone 1143, 0.877. The odorant receptor activation with OR52N1 clone 1191 was determined as 0.984; in the assay on OR52N2 M228T clone 1569 it was 0.957.

For `c1cnccn1` [pyrazine], the odorant receptor activation with OR52B2 clone 1210 amounted to 0.869; in the assay with OR52B4 clone 1508, 0.693; in assay [1], 0.784; in the assay on OR52D1 clone 1164, 1.08; in the assay with OR52E1 clone 1113, 0.99; in [2], 0.768. For the same compound, the odorant receptor activation was found to be 1.11 in assay [3]; 0.878 in the assay with OR52E5 P234L clone 1124; 0.98 in the assay with OR52E6 clone 1196; 1.15 in the assay on OR52E8 clone 1154; 0.825 in the assay with OR52H1 clone 1702; 0.915 in the assay on OR52I1 clone 1521. Also, the odorant receptor activation in the assay with OR52I2 T132M clone 1324 turned out to be 0.853; with OR52K1 clone 1163 it was 0.98; in the assay with OR52K2 clone 1211, 0.996; in assay [4], 0.946; in the assay on OR52L2 R169W clone 1117, 0.977; in the assay with OR52M1 clone 1143, 0.976. Besides, the odorant receptor activation in the assay on OR52N1 clone 1191 stood at 0.711; in the assay on OR52N2 M228T clone 1569 it was 0.765.

Regarding `CCCCO` [1-butanol], the odorant receptor activation was found to be 0.863 with OR52B2 clone 1210; 1.2 in the assay with OR52B4 clone 1508; 0.983 in [1]; 1.13 in the assay with OR52D1 clone 1164; 7.27 with OR52E1 clone 1113; 0.63 in [2]. For the same compound, the odorant receptor activation came to 0.865 in assay [3]; 0.838 with OR52E5 P234L clone 1124; 1.12 in the assay with OR52E6 clone 1196; 0.959 in the assay on OR52E8 clone 1154; 0.84 with OR52H1 clone 1702; 1.32 with OR52I1 clone 1521. In addition, the odorant receptor activation with OR52I2 T132M clone 1324 was found to be 0.8; in the assay on OR52K1 clone 1163, 1.18; with OR52K2 clone 1211, 0.585; in assay [4], 20.6; in the assay with OR52L2 R169W clone 1117, 20; in the assay with OR52M1 clone 1143, 1.03. Further, the odorant receptor activation with OR52N1 clone 1191 was determined as 1.25; in the assay with OR52N2 M228T clone 1569, 1.06.

Consider `C=CCSCC=C` [diallyl sulfide], for which the odorant receptor activation in the assay on OR52B2 clone 1210 turned out to be 1.36; with OR52B4 clone 1508, 1.32; in assay [1], 0.876; in the assay with OR52D1 clone 1164, 0.826; with OR52E1 clone 1113 it was 0.836; in assay [2], 0.916. Moreover, the odorant receptor activation in assay [3] stood at 1.14; in the assay on OR52E5 P234L clone 1124, 1.59; in the assay on OR52E6 clone 1196 it was 1.07; with OR52E8 clone 1154, 1.03; with OR52H1 clone 1702 it was 0.709; in the assay with OR52I1 clone 1521, 1.26. Further, the odorant receptor activation in the assay with OR52I2 T132M clone 1324 came out at 1.32; with OR52K1 clone 1163, 0.794; in the assay with OR52K2 clone 1211, 1.07; in assay [4], 1.09; in the assay on OR52L2 R169W clone 1117, 1.02; with OR52M1 clone 1143, 1.03. For the same compound, the results for the odorant receptor activation with OR52N1 clone 1191 and in the assay with OR52N2 M228T clone 1569 were 0.948 and 0.919, respectively.

For `CCCCCC(=O)O` [caproic acid], the odorant receptor activation amounted to 1 in the assay with OR52B2 clone 1210; 1.12 with OR52B4 clone 1508; 1 in assay [1]; 0.701 in the assay on OR52D1 clone 1164; 0.917 in the assay with OR52E1 clone 1113; 0.896 in [2]. Besides, the odorant receptor activation in [3] was 0.916; in the assay on OR52E5 P234L clone 1124, 0.78; in the assay on OR52E6 clone 1196 it was 1.05; in the assay on OR52E8 clone 1154 it was 1.01; with OR52H1 clone 1702, 1.11; in the assay on OR52I1 clone 1521, 0.805. Moreover, the odorant receptor activation with OR52I2 T132M clone 1324 was 1.05; in the assay on OR52K1 clone 1163 it was 0.834; in the assay on OR52K2 clone 1211, 0.981; in assay [4] it was 1.09; in the assay with OR52L2 R169W clone 1117, 0.957; in the assay on OR52M1 clone 1143, 0.925. Further, the odorant receptor activation came to 1.01 in the assay on OR52N1 clone 1191 and 0.886 in the assay on OR52N2 M228T clone 1569.

The values above are taken from the odorant receptor screen of Mainland et al. (2015).
